Measurements as given in patent US10195190B2, “Local delivery forms of acriflavine for treating tumors” (The Johns Hopkins University, priority 2015, dated 2019).
Some entries share one result that the patent states for a list of compounds.

Test system: 9 L gliosarcoma
Test: Survival of F344 rats intracranially implanted with 9 L gliosarcoma
Format: in vivo, rat
Conditions: systemic acriflavine or daily oral temozolomide

| Compound | time within which animals succumbed to tumor [days] |
| --- | --- |
| Cn1nnc2c(C(N)=O)ncn2c1=O [temozolomide, Temozolomide] | ≤ 40 |
| 3,6-diamino-10-methylacridinium chloride mixed with 3,6-acridinediamine [ACF] | ≤ 40 |
